# Assay results published in article doi:10.1101/719815 (bioRxiv, 2019).
# No constants are given. Whether binding was seen depends on the method and setting. In cells and extracts the contact can be indirect. Some entries that bind do so weakly or less than the wild type. For some assays here: Tags and fused reporters may be left off the sequences shown.
# B1: Nub-Cdc24 (protein, UniProt P11433 1-854)
# chain: MAIQTRFASGTSLSDLKPKPSATSISIPMQNVMNKPVTEQDSLFHICANIRKRLEVLPQLKPFLQLAYQSSEVLSERQSLLLSQKQHQELLKSNGANRDSSDLAPTLRSSSISTATSLMSMEGISYTNSNPSATPNMEDTLLTFSMGILPITMDCDPVTQLSQLFQQGAPLCILFNSVKPQFKLPVIASDDLKVCKKSIYDFILGCKKHFAFNDEELFTISDVFANSTSQLVKVLEVVETLMNSSPTIFPSKSKTQQIMNAENQHRHQPQQSSKKHNEYVKIIKEFVATERKYVHDLEILDKYRQQLLDSNLITSEELYMLFPNLGDAIDFQRRFLISLEINALVEPSKQRIGALFMHSKHFFKLYEPWSIGQNAAIEFLSSTLHKMRVDESQRFIINNKLELQSFLYKPVQRLCRYPLLVKELLAESSDDNNTKELEAALDISKNIARSINENQRRTENHQVVKKLYGRVVNWKGYRISKFGELLYFDKVFISTTNSSSEPEREFEVYLFEKIIILFSEVVTKKSASSLILKKKSSTSASISASNITDNNGSPHHSYHKRHSNSSSSNNIHLSSSSAAAIIHSSTNSSDNNSNNSSSSSLFKLSANEPKLDLRGRIMIMNLNQIIPQNNRSLNITWESIKEQGNFLLKFKNEETRDNWSSCLQQLIHDLKNEQFKARHHSSTSTTSSTAKSSSMMSPTTTMNTPNHHNSRQTHDSMASFSSSHMKRVSDVLPKRRTTSSSFESEIKSISENFKNSIPESSILFRISYNNNSNNTSSSEIFTLLVEKVWNFDDLIMAINSKISNTHNNNISPITKIKYQDEDGDFVVLGSDEDWNVAKEMLAENNEKFLNIRLY
# B2: Nub-Rsr1, P13856 1-272 (protein)
# chain: MRDYKLVVLGAGGVGKSCLTVQFVQGVYLDTYDPTIEDSYRKTIEIDNKVFDLEILDTAGIAQFTAMRELYIKSGMGFLLVYSVTDRQSLEELMELREQVLRIKDSDRVPMVLIGNKADLINERVISVEEGIEVSSKWGRVPFYETSALLRSNVDEVFVDLVRQIIRNEMESVAVKDARNQSQQFSKIESPSTRLPSSAKQDTKQSNNKQSSKGLYNKSSQGQAKVKQSTPVNEKHKPSHAVPKSGSSNRTGISATSQQKKKKKNASTCTIL
# Columns and labels:
# [1] = molecular target: T1, Cdc11-mCherry-Cub-GFP (Cdc11CCG) (yeast) (UniProt P32458); test: split reporter
# T1 sequence: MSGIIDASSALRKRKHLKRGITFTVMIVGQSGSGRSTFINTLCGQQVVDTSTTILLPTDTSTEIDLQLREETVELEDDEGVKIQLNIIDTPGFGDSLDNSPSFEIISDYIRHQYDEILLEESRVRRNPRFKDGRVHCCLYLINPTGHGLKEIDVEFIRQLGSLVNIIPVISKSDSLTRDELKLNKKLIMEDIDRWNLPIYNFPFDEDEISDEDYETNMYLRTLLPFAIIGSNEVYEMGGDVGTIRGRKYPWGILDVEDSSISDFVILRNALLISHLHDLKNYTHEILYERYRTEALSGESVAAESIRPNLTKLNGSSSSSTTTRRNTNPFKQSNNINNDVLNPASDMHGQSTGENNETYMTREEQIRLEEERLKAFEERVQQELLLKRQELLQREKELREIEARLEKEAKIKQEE
# [2] = molecular target: T2, Cdc24 extended by the Cub-RUra3 module (Cdc24CRU) (yeast), P11433; test: split reporter; details: remark: other sources report otherwise
# T2 chain: B1 chain
Binder,binding [1],binding [2]
B1,binds,–
B2,–,binds
